{
  "source": "patent US6358946B1",
  "about": "“C-6 ring-substituted pyrido[1,2-a]benzimidazole derivatives useful in treating central nervous system disorders” (Ortho-McNeil Pharmaceutical, Inc., priority 1999, dated 2002)",
  "target": "benzodiazepine site of the GABA-A receptor",
  "assay": "Benzodiazepine receptor binding assay (inhibition of 3H-flunitrazepam binding to membranes)",
  "details": "inhibition of 3H-flunitrazepam (ca. 3 nM) binding; over 10,000 = not active",
  "note": "At least one compound was matched to its structure with a doubt left.",
  "data": [
    {"smiles": "O=C1CCN(c2cccc3c2NC2=C(C(=O)Nc4ccccc4F)C(=O)CCN23)CC1", "note": "[Compound 23]", "values": [
      {"measurement": "IC50", "result": "< 1000", "unit": "nM"}
    ]}
  ]
}
